These are yes or no findings as the source states them, for the method shown. Some binding calls cover weakened binding; strength is not graded here.
What was measured:
[1] = molecular target: human MAdCAM protein (human) (UniProt Q13477); assay: Octet
[2] = molecular target: human MAdCAM expressed on cells (human) (UniProt Q13477); assay: cell binding
[3] = molecular target: mouse MAdCAM expressed on cells (mouse) (UniProt Q61826); assay: cell binding

The chains behind the UniProt entries cited, without tags or fusion partners. Where a name states a change or a piece, a line headed by the entry shows the natural chain unless it says otherwise. Residues count along the entry.
UniProt Q13477: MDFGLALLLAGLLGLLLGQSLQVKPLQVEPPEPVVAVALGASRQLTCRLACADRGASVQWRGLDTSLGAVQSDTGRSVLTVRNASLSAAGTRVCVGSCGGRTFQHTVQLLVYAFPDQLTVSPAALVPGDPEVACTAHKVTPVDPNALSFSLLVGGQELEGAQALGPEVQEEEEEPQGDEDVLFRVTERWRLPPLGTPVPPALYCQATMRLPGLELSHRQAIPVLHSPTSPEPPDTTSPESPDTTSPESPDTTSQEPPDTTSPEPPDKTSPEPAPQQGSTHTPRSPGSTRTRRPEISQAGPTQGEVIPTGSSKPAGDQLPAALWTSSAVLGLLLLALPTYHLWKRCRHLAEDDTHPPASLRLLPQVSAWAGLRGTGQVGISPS
human MAdCAM expressed on cells: residues 19-382 of Q13477
human MAdCAM protein: residues 19-317 of Q13477
UniProt Q61826, residues 22-405: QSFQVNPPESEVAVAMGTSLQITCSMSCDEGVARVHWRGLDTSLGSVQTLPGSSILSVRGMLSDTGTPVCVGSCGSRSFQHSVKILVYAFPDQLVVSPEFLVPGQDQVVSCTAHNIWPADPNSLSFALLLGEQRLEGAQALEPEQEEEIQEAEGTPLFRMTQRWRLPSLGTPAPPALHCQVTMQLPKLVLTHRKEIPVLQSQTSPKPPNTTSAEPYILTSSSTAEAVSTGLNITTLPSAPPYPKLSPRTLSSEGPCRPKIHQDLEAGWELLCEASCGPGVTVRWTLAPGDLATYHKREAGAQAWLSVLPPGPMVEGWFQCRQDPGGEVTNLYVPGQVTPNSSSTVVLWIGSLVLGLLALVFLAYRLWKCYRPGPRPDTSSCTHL

| Binder | binding [1] | binding [2] | binding [3] |
| --- | --- | --- | --- |
| MAdCAM antibody Clone ID 60 of Table 7 (IgG) (antibody, V domains shown) VH: EVQLLESGGGLVQPGGSLRLSCAASGFTFSDHGMHWVRQAPGKGLEWVSVIYGGESTYYADSVKGRFTISRDNSKNTLYLQMNSLRAEDTAVYYCARDPAVAGGGIFDYWGQGTLVTVSS VL: DIQMTQSPSSLSASVGDRVTITCRASQGISNYLAWYQQKPGKAPKLLIYDASNLETGVPSRFSGSGSGTDFTLTISSLQPEDFATYYCQQSYSTCYTFGQGTKLEIK | binds | binds | binds |
| MAdCAM antibody Clone ID 65 of Table 7 (IgG) (antibody, V domains shown) VH: QVQLVQSGAEVKKPGASVKVSCKASGYTFTSYDINWVRQAPGQGLEWMGWMNPNSGNTGYAQKFQGRVTMTRDTSTSTVYMELSSLRSEDTAVYYCAKDSDYSNLLWDYWGQGTLVTVSS VL: DIQMTQSPSSLSASVGDRVTITCRASQDITNDLGWYQQKPGKAPKLLIYQASSLESGVPSRFSGSGSGTDFTLTISSLQPEDFATYYCQQSYTIPLTFGQGTKVEIK | binds | binds |  |
| MAdCAM antibody Clone ID 74 of Table 7 (IgG) (antibody, V domains shown) VH: QVQLVQSGAEVKKPGASVKVSCKASGYTFTGYYMHWVRQAPGQGLEWMGIINPSGGNTKYAQKFQGRVTMTRDTSTSTVYMELSSLRSEDTAVYYCTTADYYYYMDVWGKGTTVTVSS VL: DIQMTQSPSSLSASVGDRVTITCRASQGISNYLAWYQQKPGKAPKLLIYAASSLQSGVPSRFSGSGSGTDFTLTISSLQPEDFATYYCQQYYSNADFGQGTKVEIK | binds | binds |  |
| MAdCAM antibody Clone ID 76 of Table 7 (IgG) (antibody, V domains shown) VH: EVQLLESGGGLVQPGGSLRLSCAASGFTFDDYTMHWVRQAPGKGLEWVSDISGSGGSTYYADSVKGRFTISRDNSKNTLYLQMNSLRAEDTAVYYCAKDVVVAGTPLHFDYWGQGTLVTVSS VL: DIQMTQSPSSLSASVGDRVTITCQASQDISNYLNWYQQKPGKAPKLLIYAASYLQSGVPSRFSGSGSGTDFTLTISSLQPEDFATYYCQQAHNYPITFGQGTRLEIK | binds | binds | binds |
| MAdCAM antibody Clone ID 82 of Table 7 (IgG) (antibody, V domains shown) VH: QVQLVQSGAEVKKPGASVKVSCKASGYTFTRHWIHWVRQAPGQGLEWMGWINVKTGGAGYAQKFQGRVTMTRDTSTSTVYMELSSLRSEDTAVYYCARESSGWYGTDVWGQGTTVTVSS VL: DIQMTQSPSSLSASVGDRATITCRASQSISNYLAWYQQKPGKAPKLLIYAASSLQSGVPSRFSGSGSGTDFTLTISSLQPEDFATYYCQQSNSFPLTFGGGTKVEIK | binds | binds | binds |
| MAdCAM antibody Clone ID 83 of Table 7 (IgG) (antibody, V domains shown) VH: EVQLLESGGGLVQPGGSLRLSCAASGFTFSSYWMHWVRQAPGKGLEWVAAISYDGKYKDYEDSVKGRFTISRDNSKNTLYLQMNSLRAEDTAVYYCARENKQWLASFDYWGQGTLVTVSS VL: DIQMTQSPSSLSASVGDRVTITCQASQDISNFVNWYQQKPGKAPKLLIYAANLRSGVPSRFSGSGSGTDFTLTISSLQPEDFATYYCQQANSFPVTFGPGTKVDIK | binds | binds | binds |
| MAdCAM antibody Clone ID 84 of Table 7 (IgG) (antibody, V domains shown) VH: QVQLVQSGAEVKKPGASVKVSCKASGGTFSSSAISWVRQAPGQGLEWMGWISAYNGYTNYAQKFQGRVTMTRDTSTSTVYMELSSLRSEDTAVYYCASRVHSGGSYPDDYWGQGTLVTVSS VL: DIQMTQSPSSLSASVGDRVTITCQASEHIYNYLNWYQQKPGKAPKLLIYAASSLQSGVPSRFSGSGSGTDFTLTISSLQPEDFATYYCQQTDSIPITFGQGTKVEIK | binds | binds | binds |

Reference: patent publication US20200392228A1
